Laboratory results taken from doi:10.1101/2022.11.30.518502.
These are yes or no findings as the source states them, for the method shown. In cells and extracts the contact can be indirect.

Protein sequences, listed by entry. Tags and fused reporters are not part of them. Lines headed by an entry give the natural chain unless they say otherwise; changes in a name come on top. Chains listed by the source or under a name are the forms on record and can include a tag or linker.
Myc-Tau^WT (P10636, form named): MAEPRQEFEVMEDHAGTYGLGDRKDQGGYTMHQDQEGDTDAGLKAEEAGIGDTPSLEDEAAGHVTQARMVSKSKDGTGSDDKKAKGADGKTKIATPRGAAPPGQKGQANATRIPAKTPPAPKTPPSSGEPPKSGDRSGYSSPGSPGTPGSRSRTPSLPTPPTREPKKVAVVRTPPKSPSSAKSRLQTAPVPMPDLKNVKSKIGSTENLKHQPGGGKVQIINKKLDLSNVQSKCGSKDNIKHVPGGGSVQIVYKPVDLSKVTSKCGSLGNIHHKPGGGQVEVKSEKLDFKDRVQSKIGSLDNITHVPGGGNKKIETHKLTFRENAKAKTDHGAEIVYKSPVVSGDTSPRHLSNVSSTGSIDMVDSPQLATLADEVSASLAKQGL

Biological target: Myc-Tau^WT (human) (UniProt P10636)
Test: co-IP

B1: TOM40 (protein, UniProt O96008 1-361)
chain: MGNVLAASSPPAGPPPPPAPALVGLPPPPPSPPGFTLPPLGGSLGAGTSTSRSSERTPGAATASASGAAEDGACGCLPNPGTFEECHRKCKELFPIQMEGVKLTVNKGLSNHFQVNHTVALSTIGESNYHFGVTYVGTKQLSPTEAFPVLVGDMDNSGSLNAQVIHQLGPGLRSKMAIQTQQSKFVNWQVDGEYRGSDFTAAVTLGNPDVLVGSGILVAHYLQSITPCLALGGELVYHRRPGEEGTVMSLAGKYTLNNWLATVTLGQAGMHATYYHKASDQLQVGVEFEASTRMQDTSVSFGYQLDLPKANLLFKGSVDSNWIVGATLEKKLPPLPLTLALGAFLNHRKNKFQCGFGLTIG
binding: no binding
